{
  "source": "paper PMC6856805",
  "about": "“Environmental Risk Assessment for the Active Pharmaceutical Ingredient Mycophenolic Acid in European Surface Waters” (Environmental Toxicology and Chemistry, 2019)",
  "key": {"[1]": {"test": "River sediment/water fate test (US FDA Guideline 3.11) with 14C-MPM", "settings": "for applied 14C activity bound to sediment / applied 14C activity remained in water / applied 14C activity trapped as 14CO2: end of test (64 d); for 50% disappearance time (DT50): river water/sediment systems"}, "[2]": {"test": "Influent/effluent removal in industrial activated sludge STP at a Roche production site", "settings": "for average removal in STP / median removal in STP: all 8 measurements; for negative removal in STP: one weekly sample"}, "[3]": {"parameters": "method as in Franquet‐Griell et al. (2017a)", "settings": "ref Franquet‐Griell et al. (2017a), cited from earlier work"}, "[4]": {"test": "OECD test guideline 314B activated sludge biodegradation simulation test", "description": "Mineralization comprises evolved CO2 (detected in the traps) as well as CO2 dissolved in the sludge. The latter was highest at day 2 and decreased afterward, whereas the amount of evolved CO2 increased continuously until the end of the study. […] At no time point was a noteworthy amount of radioactivity (>2% iRR throughout the test period) detected in the liquor after extraction. Radioactivity in the solids extract was highest at day 0 (5.5% iRR) and decreased afterward to 0.3% iRR after 28 d.\nBased on this k biodeg and physicochemical properties for MPA, SimpleTreat 4.0 (Struijs 2015) calculated a removal of 12% in STPs, mostly through biodegradation (0.27% in the primary settler and 11.5% in the aeration tank), with a small fraction of 0.13% adsorbed to sludge, in agreement with the OECD test guideline106 (Organisation for Economic Co‐operation and Development 2000) adsorption results mentioned in the previous paragraph (V. Halász‐Laky, unpublished data). However, when the k biodeg data developed by Franquet‐Griell et al. (2017a) were entered in the sequencing batch reactor for k biodeg of 0.0017 min^–1 in the first cycle, SimpleTreat calculated a removal of 43.6% in STPs (0.272% biodegradation primary settler, 43.24% aeration tank; 0.080% adsorbed); for k biodeg in the fifth cycle of 0.006 min^–1, SimpleTreat calculated a removal of 73.1% in STPs (0.272% primary settler, 72.77% aeration tank; 0.0373% adsorbed; Struijs 2015). A high degradation rate is supported by data from Franquet‐Griell et al. (2017b), who measured STP influents and effluents and compared solid phase extraction and macroporous ceramic passive samplers in Spain. The STP in question treats 65% of the wastewaters from Barcelona and surroundings (2 843 750 inhabitant equivalents) and receives urban waters, effluents from 3 large hospitals, and industrial waters; the STP performs biological treatment without nitrogen and phosphorus removal. Based on substance concentrations in effluent and influent, removal rates of >90% emerged for MPA (Franquet‐Griell et al. 2017b).\nThe OECD 314 B activated sludge degradation test (Junker & Herrchen 2017) fulfilled all quality and validity criteria. Specifically, the radioactivity measured at day 0 in the test vessels was 7412.5 dpm/mL (112.7% of nominal; replicate A) and 7457.0 dpm/mL (113.3% of nominal; replicate B), corresponding to a test item concentration of 22.5 and 22.7 μg/L, respectively. The mean recovery per sampling time point relative to nominally applied radioactivity (aR) was between 104.6% aR (day 28) and 114.5% aR (day 2), while the overall mean recovery for all sampling time points was 108.7±4.0% aR. The mean recovery per sampling time point relative to initially recovered radioactivity (iRR) was between 92.6% iRR (day 28) and 101.3% iRR (day 2), while the overall mean recovery for all sampling time points was 96.2±3.5% iRR."}},
  "data": [
    {"compound": "COc1c(C)c2c(c(O)c1C/C=C(\\C)CC[14C](=O)OCCN1CCOCC1)C(=O)OC2", "note": "[carboxyl‐^14C‐labeled MPM]", "values": [
      {"measurement": "applied 14C activity bound to sediment", "setting": "[1]; 1 mg/L dosing", "value": 17.6, "unit": "%"},
      {"measurement": "applied 14C activity remained in water", "setting": "[1]; 1 mg/L dosing", "value": 4.8, "unit": "%"},
      {"measurement": "applied 14C activity trapped as 14CO2", "setting": "[1]; 1 mg/L dosing", "value": 58.9, "unit": "%"},
      {"measurement": "applied 14C activity bound to sediment", "setting": "[1]; 5 mg/L dosing", "value": 20.3, "unit": "%"},
      {"measurement": "applied 14C activity remained in water", "setting": "[1]; 5 mg/L dosing", "value": 6.7, "unit": "%"},
      {"measurement": "applied 14C activity trapped as 14CO2", "setting": "[1]; 5 mg/L dosing", "value": 60.2, "unit": "%"}
    ]},
    {"compound": "COc1c(C)c2c(c(O)c1CC=C(C)CCC(=O)O)C(=O)OC2", "note": "[MPA, 6‐(1,3‐dihydro‐4‐hydroxy‐6‐methoxy‐7‐methyl‐3‐oxo‐5‐isobenzofuranyl)‐4‐methyl‐4‐hexenoic acid]", "values": [
      {"measurement": "average removal in STP", "setting": "[2]", "value": 52, "unit": "%"},
      {"measurement": "median removal in STP", "setting": "[2]", "value": 83, "unit": "%"},
      {"measurement": "negative removal in STP", "setting": "[2]", "value": "–73%"},
      {"measurement": "MPA detected after 24 h", "setting": "[3]; fifth cycle", "value": "no MPA at all was detected"},
      {"measurement": "MPA still detected after 48 h", "setting": "[3]; first cycle", "value": "approximately 58%"}
    ]},
    {"compound": "COc1c(C)c2c(c(O)c1C/C=C(\\C)CCC(=O)O)C(=O)OC2", "note": "[^14C‐MPA, Mycophenolic acid, [carboxyl‐14C]]", "values": [
      {"measurement": "50% disappearance time (DT50)", "setting": "[1]", "value": "approximately 14 d"},
      {"measurement": "radioactivity in the solids extract", "setting": "[4]; after 28 d", "value": 0.3, "unit": "% iRR"},
      {"measurement": "radioactivity in liquor extracts", "setting": "[4]; day 0", "value": 82.5, "unit": "% iRR"},
      {"measurement": "radioactivity in the solids extract", "setting": "[4]; day 0", "value": 5.5, "unit": "% iRR"},
      {"measurement": "nonextractable residues", "setting": "[4]; day 2", "value": 10.2, "unit": "% iRR"},
      {"measurement": "mineralization", "setting": "[4]; day 28", "value": 82.2, "unit": "% iRR"},
      {"measurement": "nonextractable residues", "setting": "[4]; day 28", "value": 7.3, "unit": "% iRR"},
      {"measurement": "radioactivity in liquor extracts", "setting": "[4]; end of the test", "value": 1.2, "unit": "% iRR"}
    ]},
    {"compound": "COc1c(C)c2c(c(O)c1C/C=C(\\C)CCC(=O)OCCN1CCOCC1)C(=O)OC2", "note": "[MPM, mycophenolate mofetil]", "values": [
      {"measurement": "average removal in STP", "setting": "[2]", "value": 52, "unit": "%"},
      {"measurement": "median removal in STP", "setting": "[2]", "value": 83, "unit": "%"},
      {"measurement": "negative removal in STP", "setting": "[2]", "value": "–73%"},
      {"measurement": "50% disappearance time (DT50)", "setting": "[1]", "value": "< 2", "unit": "days"}
    ]}
  ]
}
